# Test results: PubChem BioAssay AID2685 (National Center for Advancing Translational Sciences (NCATS), 2010)
# The list shows a part of the results. Shown are side measurements of this screen, not its main read-out; they come without a call. Most of these compounds were active or inconclusive in the main read-out, so they are no random draw. The note in brackets gives the kind of curve behind each potency; many fits are weak.
# Test: qHTS Assay for Lipid Storage Modulators in Drosophila S3 Cells;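 for cell number change: cells counted by Cell Tracker Red CMTPX staining in the red channel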
# Details: BODIPY lipid droplet fluorescence, 18-24 h; for cell number change: measured here: cell count max response, cells fed with added oleic acid
# Summary of the method: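 Drosophila S3 cells got compounds at several concentrations plus oleic acid (400 uM solution). Laser-scanning cytometry with 488 nm excitation read lipid droplets at 500-530 nm and cells at 575-640 nm. Percent activity was relative to 20 uM Triacsin C.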
# [1] = measured here: lipid fluorescence (Fed channel) AC50, cells fed with added oleic acid
# [2] = measured here: cell number channel AC50, cells fed with added oleic acid
Compound,cell number change,AC50 [1],AC50 [2]
COc1ccc(S(=O)(=O)N2CCCC(C(=O)NCc3ccco3)C2)cc1Cl (stereo unspecified),-1.55%,"0.00651 µM [falling, full curve, poor fit]",
CC1CCN(S(=O)(=O)c2ccc3c(ccn3CCC(=O)NC(C)C)c2)CC1,-8.75%,"2.31 µM [rising, single point]",
Cc1cc(C)nc(-n2ncc3c2CC(c2ccccc2)CC3=O)n1 (stereo unspecified),-6.03%,"8.2 µM [falling, partial curve, poor fit]",
C=CCNC(=O)C1CC(=O)N(c2ccc(OCC(=O)Nc3ccc(Cl)c(C(F)(F)F)c3)cc2)C1 (stereo unspecified),17.3%,"0.0326 µM [rising, full curve, poor fit]",
Cc1cc(C)c(C)c(S(=O)(=O)NCC(=O)O)c1C,-17.4%,"0.82 µM [falling, full curve]",
N#CCSc1ccsc1C(=O)Nc1ccc(F)cc1,64.9%,"1.46 µM [rising, full curve]","3.66 µM [rising, full curve]"
CC1CCN(C(=O)C2CCN(S(=O)(=O)c3cccc4cccnc34)CC2)CC1,-34.3%,,"20.6 µM [falling, single point]"
COc1ccccc1-n1nnnc1SCC(=O)Nc1ccccc1,37.1%,"6.51 µM [rising, partial curve, poor fit]","29.1 µM [rising, single point]"
O=C(Nc1ccc(C(=O)N2CCCCC2)cc1)Nc1cccc(Cl)c1,,"16.4 µM [falling, single point]",
CC(C)[C@H](NC(=O)OCc1ccccc1)C(=O)OCc1cc(=O)oc2cc(O)ccc12,-26.7%,"6.51 µM [falling, single point]",
COC(=O)c1cc(C)[nH]c2c(C)cc3nc4ccccc4c3c12,-38.1%,"16.4 µM [falling, single point]","14.6 µM [falling, single point]"
O=C(CSc1nc(Cc2ccccc2)nc2ccccc12)Nc1ccc2c(c1)OCCO2,-20.3%,"1.46 µM [rising, partial curve]",
NC(=O)CC(NC(=O)Cc1ccc(Br)cc1)c1ccc(N2CCc3ccccc3C2)c([N+](=O)[O-])c1 (stereo unspecified),-42.2%,"18.4 µM [falling, partial curve]","29.1 µM [falling, single point]"
CCC(C)[C@H](NC(=O)NCCC1=CCCCC1)C(=O)OC (stereo partly specified),8.43%,,
COCCn1c(SCC(=O)Nc2cccnc2Cl)nc2cc(Cl)ccc2c1=O,6.43%,"18.4 µM [falling, partial curve]",
Cc1nn(-c2ccc(F)cc2)c2sc(C(=O)OC3CCOC3=O)cc12 (stereo unspecified),33.5%,"29.1 µM [rising, single point]","29.1 µM [rising, single point]"
COc1ccccc1CC(NC(C)=O)C(=O)NC1CCN(C(=O)NCc2ccccc2)CC1 (stereo unspecified),10.5%,,
Cc1csc(NC(=O)c2ccccc2C(=O)O)n1,2.9%,"16.4 µM [falling, partial curve]",
C=CCN=c1scc(-c2ccc3c(c2)NC(=O)CO3)n1/N=C(\C)c1ccccn1,-8.3%,"11.6 µM [falling, partial curve, poor fit]",
COC(=O)c1ccc(NC(=O)Cn2nnc3ccccc32)cc1,95%,"23.1 µM [rising, partial curve]","25.9 µM [rising, partial curve]"

# 14 structures already listed, sorted by formula weight, largest number first.
Compound,cell number change,AC50 [1],AC50 [2]
NC(=O)CC(NC(=O)Cc1ccc(Br)cc1)c1ccc(N2CCc3ccccc3C2)c([N+](=O)[O-])c1 (stereo unspecified),-42.2%,"18.4 µM [falling, partial curve]","29.1 µM [falling, single point]"
C=CCNC(=O)C1CC(=O)N(c2ccc(OCC(=O)Nc3ccc(Cl)c(C(F)(F)F)c3)cc2)C1 (stereo unspecified),17.3%,"0.0326 µM [rising, full curve, poor fit]",
COc1ccccc1CC(NC(C)=O)C(=O)NC1CCN(C(=O)NCc2ccccc2)CC1 (stereo unspecified),10.5%,,
O=C(CSc1nc(Cc2ccccc2)nc2ccccc12)Nc1ccc2c(c1)OCCO2,-20.3%,"1.46 µM [rising, partial curve]",
CC(C)[C@H](NC(=O)OCc1ccccc1)C(=O)OCc1cc(=O)oc2cc(O)ccc12,-26.7%,"6.51 µM [falling, single point]",
COc1ccc(S(=O)(=O)N2CCCC(C(=O)NCc3ccco3)C2)cc1Cl (stereo unspecified),-1.55%,"0.00651 µM [falling, full curve, poor fit]",
CC1CCN(C(=O)C2CCN(S(=O)(=O)c3cccc4cccnc34)CC2)CC1,-34.3%,,"20.6 µM [falling, single point]"
O=C(Nc1ccc(C(=O)N2CCCCC2)cc1)Nc1cccc(Cl)c1,,"16.4 µM [falling, single point]",
COc1ccccc1-n1nnnc1SCC(=O)Nc1ccccc1,37.1%,"6.51 µM [rising, partial curve, poor fit]","29.1 µM [rising, single point]"
Cc1cc(C)nc(-n2ncc3c2CC(c2ccccc2)CC3=O)n1 (stereo unspecified),-6.03%,"8.2 µM [falling, partial curve, poor fit]",
COC(=O)c1ccc(NC(=O)Cn2nnc3ccccc32)cc1,95%,"23.1 µM [rising, partial curve]","25.9 µM [rising, partial curve]"
CCC(C)[C@H](NC(=O)NCCC1=CCCCC1)C(=O)OC (stereo partly specified),8.43%,,
Cc1cc(C)c(C)c(S(=O)(=O)NCC(=O)O)c1C,-17.4%,"0.82 µM [falling, full curve]",
Cc1csc(NC(=O)c2ccccc2C(=O)O)n1,2.9%,"16.4 µM [falling, partial curve]",

# Additional results follow:

Compound,cell number change,AC50 [1],AC50 [2]
Cc1[nH]c2ccc(C(=O)N3CCN(c4ccc(F)cc4)CC3)cc2c1C,6.11%,"0.116 µM [rising, full curve]",
O=C(Nc1nc2ccc(Cl)cc2s1)c1cccc(N2C(=O)CCC2=O)c1,-19.3%,"1.84 µM [falling, full curve, poor fit]",
Cn1c(=O)cc(OCC(=O)NCCCN2CCN(c3ccccc3F)CC2)c2ccccc21,8.49%,"6.51 µM [rising, single point]",
CNc1cnn(-c2ccc(C)cc2)c(=O)c1Sc1ccc(C)cc1,-37%,"1.46 µM [falling, full curve, poor fit]",
CCCCOC(=O)c1ccc(NC(=O)c2nn(C)cc2Br)cc1,-3.5%,"20.6 µM [falling, single point]",
Cc1cccc2c1N(CCOc1ccc(C(C)(C)C)cc1)C(=O)C2=O,-66.9%,"23.1 µM [falling, single point]","23.1 µM [falling, partial curve, poor fit]"
O=C(N/N=C/c1c(O)n(Cc2ccco2)c(=O)[nH]c1=O)c1ccccc1,14%,"0.00461 µM [falling, full curve, poor fit]",
Cc1[nH]c2ccccc2c1C(c1ccccn1)c1c(C)[nH]c2ccccc12,-40.8%,,"29.1 µM [falling, single point]"
CC(C)(C)C1CCC(C(=O)Nc2ccc(N3CCOCC3)cc2N2CCOCC2)CC1 (stereo unspecified),,"4.61 µM [falling, partial curve, poor fit]",
CCN(Cc1cc2ccccc2[nH]c1=O)C(=O)c1cccc([N+](=O)[O-])c1,13.9%,"1.64 µM [rising, full curve, poor fit]",
CCN(CC)S(=O)(=O)c1ccc(N2CCCC2)c(C(=O)OCC(=O)N2CCCC2)c1,-1.2%,"29.1 µM [rising, single point]",
COC(=O)CSC1=C(C#N)C(c2ccccc2OC)C(C(=O)OC)C(=O)N1 (stereo unspecified),0.916%,"0.731 µM [falling, single point]",
N/C(=N\OC(=O)Cc1ccccc1)c1ccc(Br)cc1,25.5%,"10.3 µM [rising, partial curve]",
Cc1ccc(C)c(S(=O)(=O)N2CCNCC2)c1,-24.6%,"16.4 µM [falling, partial curve]",
CC1CSC(N(C(=O)c2ccc(S(C)(=O)=O)cc2)c2ccc(Cl)cc2)=N1 (stereo unspecified),-4.32%,,
O=C(Nc1ccc(F)cc1)c1sc(Cl)nc1-c1ccccc1,18.7%,,
COc1cc(Nc2nnc(C)s2)c(Cl)cc1Cl,-11.7%,"3.66 µM [falling, partial curve]",
CS(=O)(=O)N(CC(=O)N1CCOCC1)Cc1ccccc1,-32.2%,"18.4 µM [falling, partial curve]","29.1 µM [falling, single point]"
CSCCC(NC(=O)c1ccccc1)C(=O)Nc1ccncc1 (stereo unspecified),42.6%,"23.1 µM [rising, single point]","7.31 µM [rising, partial curve]"
CCOc1cccc2c1OC(c1cc(OC)c(OC)c(OC)c1)N1N=C(c3ccc(C)o3)CC21 (stereo unspecified),-12.6%,"25.9 µM [falling, single point]",

Compound,cell number change,AC50 [1],AC50 [2]
CCC(=O)NCCc1cc2ccc(C)cc2[nH]c1=O,,"0.58 µM [rising, single point]",
COCCNC(=O)c1c(NC(=O)c2nc(SC)ncc2Cl)sc2c1CCCC2,-74%,,"23.1 µM [falling, single point]"
O=C(NC1CCCC1)C(c1ccncc1)N(C(=O)c1csnn1)c1ccc(Cl)cc1 (stereo unspecified),-6.31%,,
CCOc1ccc(CN(C)C(=O)c2cc3ccccc3o2)cc1OC,-5.71%,"6.51 µM [rising, single point]",
COc1cc(NC(=O)c2cc(S(=O)(=O)N3CCc4ccccc43)cn2C)cc(OC)c1OC,31.4%,,"16.4 µM [rising, single point]"
COc1ccc(S(=O)(=O)N2CCn3c2nc2ccccc23)cc1,22.5%,"9.2 µM [rising, partial curve]","4.11 µM [rising, single point]"
Cc1ccc(SCC(=O)N2CCCC2)cc1,-25.3%,,"0.411 µM [falling, full curve, poor fit]"
CCc1ccc(N=CC2=C(O)CC(c3ccco3)CC2=O)cc1 (stereo unspecified),-18.4%,,
CCN(CC)S(=O)(=O)c1ccc(C(=O)N2CCN(CCN3C(=O)c4cccc5cccc(c45)C3=O)CC2)cc1,48.1%,,"0.00461 µM [rising, full curve, poor fit]"
CC(=O)Nc1cccc(NC(=O)CSc2nnc(Cc3cccn3C)n2-c2ccc(F)cc2)c1,,"6.51 µM [rising, single point]","6.51 µM [rising, single point]"
N#CCOC(=O)C1CSC2(c3ccc(Br)cc3)CCC(=O)N12 (stereo unspecified),62.6%,,
CC(C)Cn1c(N)c(C(=O)COC(=O)CCc2nc3ccccc3s2)c(=O)n(C)c1=O,16.6%,"3.66 µM [rising, single point]","0.82 µM [rising, full curve, poor fit]"
O=C(Nc1ccc2nc3n(c(=O)c2c1)CCCCC3)C(=O)N1CCN(c2ccccc2F)CC1,16.9%,,
CCc1cccc(C)c1NC(=O)C1CCCN(S(C)(=O)=O)C1 (stereo unspecified),4.67%,"3.26 µM [rising, full curve]",
O=C(NCC1CCCO1)c1cccc(-n2cnnn2)c1 (stereo unspecified),6.93%,"0.13 µM [falling, full curve, poor fit]",
Cc1ccc(/C=C2/SC(=S)N(CCC(=O)NCCCN3CCOCC3)C2=O)cc1,5.82%,"3.26 µM [rising, full curve, poor fit]",
CCO[C@@H]1OC(C(=O)NCc2nc3ccccc3[nH]2)=C[C@H](c2cn(C(C)=O)c3ccccc23)[C@H]1CCCO,-34.1%,,"18.4 µM [falling, single point]"
O=C1CCCC(c2ccccc2)N1 (stereo unspecified),9.14%,"16.4 µM [falling, partial curve, poor fit]",
